Test results from the supplement of paper PMC12823440, “Inhibitors supercharge kinase turnover through native proteolytic circuits” (Nature, 2025).
Where a name gives a salt, the structure may show the parent alone. This is one part of the list. The calls rarely recur for the same compound in another form.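 Kinases, fused to nanoluciferase, were expressed in K562 cells; luminescence was measured every 4 h from 2 to 18 h as percent of control (DMSO = 100%, positive control = 0%). A time point is decreased if signal falls significantly (2 sigma). Hits were called by the authors by a rule that is not shown; the count of time points alone does not decide it.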

Sequences of proteins named here, by UniProt entry; tags and fusion partners are left off. A change or cut given only in a name is not applied to a line headed by its entry.
UniProt O75460: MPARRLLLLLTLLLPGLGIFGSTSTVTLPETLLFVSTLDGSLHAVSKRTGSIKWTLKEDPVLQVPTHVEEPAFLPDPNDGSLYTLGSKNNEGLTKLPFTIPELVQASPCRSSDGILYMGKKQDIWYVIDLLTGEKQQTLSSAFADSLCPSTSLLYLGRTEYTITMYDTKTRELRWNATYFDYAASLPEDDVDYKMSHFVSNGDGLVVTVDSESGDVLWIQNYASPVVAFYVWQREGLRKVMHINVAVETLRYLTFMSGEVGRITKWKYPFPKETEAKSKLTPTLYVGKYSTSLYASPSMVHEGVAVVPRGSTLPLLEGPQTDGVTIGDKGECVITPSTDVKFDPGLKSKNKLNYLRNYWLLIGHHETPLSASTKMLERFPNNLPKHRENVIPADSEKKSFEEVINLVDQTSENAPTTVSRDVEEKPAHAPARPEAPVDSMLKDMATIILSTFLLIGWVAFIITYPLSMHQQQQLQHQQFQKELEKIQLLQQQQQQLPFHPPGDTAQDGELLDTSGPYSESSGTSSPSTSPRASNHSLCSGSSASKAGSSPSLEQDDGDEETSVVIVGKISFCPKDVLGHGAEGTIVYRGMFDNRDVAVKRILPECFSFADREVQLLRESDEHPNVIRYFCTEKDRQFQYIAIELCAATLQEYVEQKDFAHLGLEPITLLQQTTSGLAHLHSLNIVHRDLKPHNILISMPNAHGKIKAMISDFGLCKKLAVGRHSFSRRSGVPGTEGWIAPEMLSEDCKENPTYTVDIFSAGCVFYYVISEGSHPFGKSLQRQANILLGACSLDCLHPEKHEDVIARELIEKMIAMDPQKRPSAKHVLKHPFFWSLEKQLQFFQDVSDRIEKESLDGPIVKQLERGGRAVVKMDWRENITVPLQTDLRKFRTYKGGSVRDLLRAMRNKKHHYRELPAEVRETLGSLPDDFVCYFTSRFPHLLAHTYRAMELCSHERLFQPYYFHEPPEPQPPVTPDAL
UniProt P21802, whole entry, looked up: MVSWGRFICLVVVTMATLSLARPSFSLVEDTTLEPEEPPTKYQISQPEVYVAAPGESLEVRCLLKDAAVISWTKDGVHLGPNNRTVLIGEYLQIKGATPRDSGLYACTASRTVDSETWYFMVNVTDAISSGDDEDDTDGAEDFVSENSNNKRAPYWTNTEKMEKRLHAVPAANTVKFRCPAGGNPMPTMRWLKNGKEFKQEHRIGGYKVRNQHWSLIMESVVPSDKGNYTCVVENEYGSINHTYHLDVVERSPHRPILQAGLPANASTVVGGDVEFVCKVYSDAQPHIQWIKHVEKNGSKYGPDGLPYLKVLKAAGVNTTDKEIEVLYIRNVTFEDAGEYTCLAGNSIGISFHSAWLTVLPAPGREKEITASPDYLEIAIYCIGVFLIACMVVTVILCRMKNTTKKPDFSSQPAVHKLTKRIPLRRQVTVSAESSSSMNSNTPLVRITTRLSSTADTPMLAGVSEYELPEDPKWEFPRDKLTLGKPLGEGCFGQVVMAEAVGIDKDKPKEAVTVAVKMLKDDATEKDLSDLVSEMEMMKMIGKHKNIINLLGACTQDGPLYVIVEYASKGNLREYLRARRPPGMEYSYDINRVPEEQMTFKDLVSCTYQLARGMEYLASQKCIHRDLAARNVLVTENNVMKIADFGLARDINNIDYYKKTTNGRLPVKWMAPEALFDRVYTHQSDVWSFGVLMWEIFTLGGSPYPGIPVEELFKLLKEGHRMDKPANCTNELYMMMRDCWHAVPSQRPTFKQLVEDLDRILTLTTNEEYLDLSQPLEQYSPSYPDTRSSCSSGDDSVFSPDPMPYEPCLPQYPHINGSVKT
UniProt P22607, whole entry, looked up: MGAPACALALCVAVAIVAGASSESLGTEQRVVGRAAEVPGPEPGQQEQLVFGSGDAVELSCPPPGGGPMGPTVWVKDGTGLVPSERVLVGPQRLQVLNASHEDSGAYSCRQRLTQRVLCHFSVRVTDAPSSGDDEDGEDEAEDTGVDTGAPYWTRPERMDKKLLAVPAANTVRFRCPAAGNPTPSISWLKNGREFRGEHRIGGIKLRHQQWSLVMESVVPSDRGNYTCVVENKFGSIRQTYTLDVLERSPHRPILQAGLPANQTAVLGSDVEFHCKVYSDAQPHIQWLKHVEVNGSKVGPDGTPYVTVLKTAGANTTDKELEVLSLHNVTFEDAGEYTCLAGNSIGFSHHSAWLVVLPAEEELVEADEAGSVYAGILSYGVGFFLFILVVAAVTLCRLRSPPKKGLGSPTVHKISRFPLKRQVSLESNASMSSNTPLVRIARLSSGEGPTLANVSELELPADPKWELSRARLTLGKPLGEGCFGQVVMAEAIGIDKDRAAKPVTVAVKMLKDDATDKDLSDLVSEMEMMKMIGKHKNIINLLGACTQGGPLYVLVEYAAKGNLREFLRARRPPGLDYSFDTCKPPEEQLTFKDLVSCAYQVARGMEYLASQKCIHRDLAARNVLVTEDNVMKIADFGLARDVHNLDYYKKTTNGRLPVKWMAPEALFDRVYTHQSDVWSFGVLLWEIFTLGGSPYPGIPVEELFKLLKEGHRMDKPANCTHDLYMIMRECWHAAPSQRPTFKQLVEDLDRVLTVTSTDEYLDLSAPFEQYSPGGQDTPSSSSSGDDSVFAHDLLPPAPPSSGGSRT
UniProt P36888, whole entry: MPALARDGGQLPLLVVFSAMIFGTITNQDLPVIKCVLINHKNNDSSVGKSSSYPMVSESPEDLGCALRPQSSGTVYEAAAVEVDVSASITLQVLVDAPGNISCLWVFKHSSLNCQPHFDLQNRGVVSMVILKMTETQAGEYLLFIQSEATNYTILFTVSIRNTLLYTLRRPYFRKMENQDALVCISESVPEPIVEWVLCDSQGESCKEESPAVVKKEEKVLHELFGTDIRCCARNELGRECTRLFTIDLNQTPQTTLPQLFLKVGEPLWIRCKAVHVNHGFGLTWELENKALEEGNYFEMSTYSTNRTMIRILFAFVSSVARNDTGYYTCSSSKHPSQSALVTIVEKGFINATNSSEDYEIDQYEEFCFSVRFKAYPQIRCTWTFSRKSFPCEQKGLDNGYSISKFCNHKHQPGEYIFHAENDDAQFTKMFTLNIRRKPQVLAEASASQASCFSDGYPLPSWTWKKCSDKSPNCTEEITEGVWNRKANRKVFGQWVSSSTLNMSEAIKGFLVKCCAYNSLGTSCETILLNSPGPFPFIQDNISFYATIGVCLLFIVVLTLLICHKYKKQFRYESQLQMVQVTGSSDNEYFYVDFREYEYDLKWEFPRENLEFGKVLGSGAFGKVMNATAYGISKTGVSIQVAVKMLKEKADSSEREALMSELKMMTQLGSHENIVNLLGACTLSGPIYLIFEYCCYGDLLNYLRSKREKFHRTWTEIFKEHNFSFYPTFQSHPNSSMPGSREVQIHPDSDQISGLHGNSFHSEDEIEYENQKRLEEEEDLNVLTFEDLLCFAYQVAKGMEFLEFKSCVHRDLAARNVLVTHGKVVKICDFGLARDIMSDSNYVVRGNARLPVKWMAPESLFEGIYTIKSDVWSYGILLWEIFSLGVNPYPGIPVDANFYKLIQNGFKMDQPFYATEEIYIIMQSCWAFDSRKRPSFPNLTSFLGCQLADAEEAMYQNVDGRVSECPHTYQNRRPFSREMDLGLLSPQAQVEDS
UniProt P06241, whole entry, looked up: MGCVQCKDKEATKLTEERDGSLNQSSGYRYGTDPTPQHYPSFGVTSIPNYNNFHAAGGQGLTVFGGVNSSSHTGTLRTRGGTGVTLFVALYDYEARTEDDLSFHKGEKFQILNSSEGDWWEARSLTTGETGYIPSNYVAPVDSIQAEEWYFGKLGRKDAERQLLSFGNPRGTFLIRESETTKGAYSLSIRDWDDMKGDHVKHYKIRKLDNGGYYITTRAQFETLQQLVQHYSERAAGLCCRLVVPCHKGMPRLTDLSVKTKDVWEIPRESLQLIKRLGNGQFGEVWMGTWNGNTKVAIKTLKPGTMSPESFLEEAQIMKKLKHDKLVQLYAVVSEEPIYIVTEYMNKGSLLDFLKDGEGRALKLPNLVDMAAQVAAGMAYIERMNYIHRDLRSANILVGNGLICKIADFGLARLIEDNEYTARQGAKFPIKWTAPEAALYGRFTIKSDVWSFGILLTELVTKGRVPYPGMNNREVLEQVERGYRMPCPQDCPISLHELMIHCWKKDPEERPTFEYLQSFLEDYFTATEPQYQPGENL
UniProt P49840: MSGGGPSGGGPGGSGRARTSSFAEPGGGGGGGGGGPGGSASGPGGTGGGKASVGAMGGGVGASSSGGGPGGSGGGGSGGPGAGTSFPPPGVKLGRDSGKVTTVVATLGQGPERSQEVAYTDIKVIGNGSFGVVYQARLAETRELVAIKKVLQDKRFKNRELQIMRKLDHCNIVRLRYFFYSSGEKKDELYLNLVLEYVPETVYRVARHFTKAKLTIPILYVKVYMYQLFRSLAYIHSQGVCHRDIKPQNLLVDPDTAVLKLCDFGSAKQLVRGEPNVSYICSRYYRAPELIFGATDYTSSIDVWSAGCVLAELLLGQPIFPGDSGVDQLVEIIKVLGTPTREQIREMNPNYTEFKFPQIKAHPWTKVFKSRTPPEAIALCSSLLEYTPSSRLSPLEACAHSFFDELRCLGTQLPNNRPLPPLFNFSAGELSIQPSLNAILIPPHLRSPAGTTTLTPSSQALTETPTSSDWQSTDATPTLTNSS
UniProt P14616: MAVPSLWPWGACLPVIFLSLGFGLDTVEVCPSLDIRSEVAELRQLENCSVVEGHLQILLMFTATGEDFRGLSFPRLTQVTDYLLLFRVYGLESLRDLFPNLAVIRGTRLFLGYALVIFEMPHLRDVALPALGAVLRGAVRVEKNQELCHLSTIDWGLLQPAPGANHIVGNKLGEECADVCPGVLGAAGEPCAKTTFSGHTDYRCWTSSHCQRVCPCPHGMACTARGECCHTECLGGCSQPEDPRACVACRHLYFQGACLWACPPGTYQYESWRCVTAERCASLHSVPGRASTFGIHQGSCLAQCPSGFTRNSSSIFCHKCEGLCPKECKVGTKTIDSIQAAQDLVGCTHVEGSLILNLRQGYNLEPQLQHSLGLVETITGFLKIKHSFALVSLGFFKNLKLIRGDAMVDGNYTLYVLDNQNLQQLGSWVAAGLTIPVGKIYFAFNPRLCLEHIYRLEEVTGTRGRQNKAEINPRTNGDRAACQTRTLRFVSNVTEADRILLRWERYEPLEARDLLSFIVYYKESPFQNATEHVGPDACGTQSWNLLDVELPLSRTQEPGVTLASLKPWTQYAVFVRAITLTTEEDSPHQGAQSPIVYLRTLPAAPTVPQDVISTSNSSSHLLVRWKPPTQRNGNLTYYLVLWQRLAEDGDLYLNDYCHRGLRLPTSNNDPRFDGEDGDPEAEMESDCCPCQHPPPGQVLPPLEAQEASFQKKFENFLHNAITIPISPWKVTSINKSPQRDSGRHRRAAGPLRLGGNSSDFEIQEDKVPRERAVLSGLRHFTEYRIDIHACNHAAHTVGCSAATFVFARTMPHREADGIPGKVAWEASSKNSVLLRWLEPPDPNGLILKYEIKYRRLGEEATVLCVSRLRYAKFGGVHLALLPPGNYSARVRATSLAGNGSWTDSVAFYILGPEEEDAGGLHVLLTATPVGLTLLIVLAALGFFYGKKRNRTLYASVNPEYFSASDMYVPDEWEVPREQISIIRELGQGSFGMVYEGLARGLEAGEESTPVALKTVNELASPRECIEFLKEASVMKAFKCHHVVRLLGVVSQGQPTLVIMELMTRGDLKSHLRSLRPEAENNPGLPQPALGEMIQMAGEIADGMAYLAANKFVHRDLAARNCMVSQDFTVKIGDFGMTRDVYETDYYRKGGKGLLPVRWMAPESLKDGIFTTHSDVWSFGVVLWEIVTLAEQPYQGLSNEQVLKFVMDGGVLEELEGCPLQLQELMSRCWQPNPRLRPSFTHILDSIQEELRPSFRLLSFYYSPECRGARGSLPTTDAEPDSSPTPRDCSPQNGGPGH

How the values were obtained:
Assay in all cases: kinase-Nluc reporter destabilization hit call (1 = scored as downregulated) (binary); higher = compound decreases kinase abundance
Settings in all cases: K562; 2-18 h
[1] = target: ERN1 (UniProt O75460)
[2] = target: FGFR1 (UniProt P11362)
[3] = target: FGFR2 (UniProt P21802)
[4] = target: FGFR3 (UniProt P22607)
[5] = target: FGR (UniProt P09769)
[6] = target: FLT3 (UniProt P36888)
[7] = target: FYN (UniProt P06241)
[8] = target: GSK3A (UniProt P49840)
[9] = target: HER2 (UniProt P04626)
[10] = target: INSRR (UniProt P14616)

Measured: kinase-Nluc reporter destabilization hit call

CO[C@]1(C(=O)N[C@@H](C)c2ccc(-n3cc(F)cn3)nc2)CC[C@H](c2nc(C)cc(Nc3cc(C)[nH]n3)n2)CC1 [Pralsetinib] (10 µM)
inactive: [1] 0 | [2] 0 | [3] 0 | [4] 0 | [5] 0 | [6] 0 | [7] 0 | [8] 0 | [9] 0 | [10] 0

Cc1cc(N2CCOCC2)ccc1Nc1nc(NC2CCCCC2)c2[nH]cnc2n1 (10 µM)
inactive: [1] 0 | [2] 0 | [3] 0 | [4] 0 | [5] 0 | [6] 0 | [7] 0 | [8] 0 | [9] 0 | [10] 0

O=c1cc(-c2ccc(O[C@@H]3O[C@H](CO)[C@@H](O)[C@H](O)[C@H]3O)cc2)oc2cc(O)c([C@@H]3O[C@H](CO)[C@@H](O)[C@H](O)[C@H]3O[C@@H]3OC[C@H](O)[C@H](O)[C@H]3O)c(O)c12 [Vaccarin] (10 µM)
inactive: [1] 0 | [2] 0 | [3] 0 | [4] 0 | [5] 0 | [6] 0 | [7] 0 | [8] 0 | [9] 0 | [10] 0

CNCc1ccccc1Sc1cccc2ccccc12 [IFN alpha-IFNAR-IN-1 (hydrochloride)] (10 µM)
inactive: [1] 0 | [2] 0 | [3] 0 | [4] 0 | [5] 0 | [6] 0 | [7] 0 | [8] 0 | [9] 0 | [10] 0

CN(C)c1ccc(/C=C2\C(=O)Nc3ccccc32)c2ccccc12 (10 µM)
inactive: [1] 0 | [2] 0 | [3] 0 | [4] 0 | [5] 0 | [6] 0 | [7] 0 | [8] 0 | [9] 0 | [10] 0

CC1(C)C=Cc2c(ccc(C(=O)/C=C/c3ccc(O)cc3)c2O)O1 [4-Hydroxylonchocarpin] (10 µM)
inactive: [1] 0 | [2] 0 | [3] 0 | [4] 0 | [5] 0 | [6] 0 | [7] 0 | [8] 0 | [9] 0 | [10] 0

C=CC(=O)Nc1cc(Nc2nccc(-c3cn(C)c4ccccc34)n2)c(OCC(F)(F)F)nc1N(C)CCNC [AST5902  (trimesylate)] (2.5 µM)
inactive: [1] 0 | [2] 0 | [3] 0 | [4] 0 | [5] 0 | [6] 0 | [7] 0 | [8] 0 | [9] 0 | [10] 0

O=C(COc1ccc(Cl)cc1)NC1CCC(NC(=O)COc2ccc(Cl)cc2)CC1 (stereo not drawn) [ISRIB (trans-isomer)] (10 µM)
inactive: [1] 0 | [2] 0 | [3] 0 | [4] 0 | [5] 0 | [6] 0 | [7] 0 | [8] 0 | [9] 0 | [10] 0

COc1cc(N2CCC(O)CC2)ccc1Nc1nc(Nc2ccccc2S(=O)(=O)C(C)C)c2[nH]cnc2n1 (10 µM)
inactive: [1] 0 | [2] 0 | [3] 0 | [4] 0 | [5] 0 | [6] 0 | [7] 0 | [8] 0 | [9] 0 | [10] 0

Cc1nn(CC(F)(F)F)cc1Nc1ncc(Br)c(NCc2ccc(S(N)(=O)=O)cc2)n1 (10 µM)
inactive: [1] 0 | [2] 0 | [3] 0 | [4] 0 | [5] 0 | [6] 0 | [7] 0 | [8] 0 | [9] 0 | [10] 0

COC(=O)N1CCN(C2CCC(Nc3nc(Nc4cnn(C)c4)nc4ccc(CC#N)nc34)CC2)CC1 (configuration not stated) (10 µM)
inactive: [1] 0 | [2] 0 | [3] 0 | [4] 0 | [5] 0 | [6] 0 | [7] 0 | [8] 0 | [9] 0 | [10] 0

COc1cccc(-c2cc(=O)c3ccccc3o2)c1N (10 µM)
inactive: [1] 0 | [2] 0 | [3] 0 | [4] 0 | [5] 0 | [6] 0 | [7] 0 | [8] 0 | [9] 0 | [10] 0

COCCOc1cnc2ccn([C@H](C)c3nnc4c(F)cc(-c5cnn(C)c5)cn34)c(=O)c2c1 (10 µM)
inactive: [1] 0 | [2] 0 | [3] 0 | [4] 0 | [5] 0 | [6] 0 | [7] 0 | [8] 0 | [9] 0 | [10] 0

Sorted by SMILES length (high to low): some entries from above
COc1cc(N2CCC(O)CC2)ccc1Nc1nc(Nc2ccccc2S(=O)(=O)C(C)C)c2[nH]cnc2n1 (10 µM)
inactive: [1] 0 | [2] 0 | [3] 0 | [4] 0 | [5] 0 | [6] 0 | [7] 0 | [8] 0 | [9] 0 | [10] 0

Cc1nn(CC(F)(F)F)cc1Nc1ncc(Br)c(NCc2ccc(S(N)(=O)=O)cc2)n1 (10 µM)
inactive: [1] 0 | [2] 0 | [3] 0 | [4] 0 | [5] 0 | [6] 0 | [7] 0 | [8] 0 | [9] 0 | [10] 0

Cc1cc(N2CCOCC2)ccc1Nc1nc(NC2CCCCC2)c2[nH]cnc2n1 (10 µM)
inactive: [1] 0 | [2] 0 | [3] 0 | [4] 0 | [5] 0 | [6] 0 | [7] 0 | [8] 0 | [9] 0 | [10] 0

(cont.)

Fc1ccc(Cl)cc1-c1nc(Nc2ccncc2)c2nccnc2n1 (10 µM)
inactive: [1] 0 | [2] 0 | [3] 0 | [4] 0 | [5] 0 | [6] 0 | [7] 0 | [8] 0 | [9] 0 | [10] 0

Cc1ccc(Nc2cc(N[C@@H]3CCCC[C@@H]3N)nnc2C(N)=O)nc1C (2 µM)
inactive: [1] 0 | [2] 0 | [3] 0 | [4] 0 | [5] 0 | [6] 0 | [7] 0 | [8] 0 | [9] 0 | [10] 0

Cc1nc2c(NCc3cccc(S(C)(=O)=O)c3)nccn2c1-c1ccc(O)c(F)c1 (10 µM)
inactive: [1] 0 | [2] 0 | [3] 0 | [4] 0 | [5] 0 | [6] 0 | [7] 0 | [8] 0 | [9] 0 | [10] 0

CN(C)C(=O)c1cc2cnc(Nc3ccc(N4CCN(CCCCNC(=O)COc5cccc6c5C(=O)N(C5CCC(=O)NC5=O)C6=O)CC4)cn3)nc2n1C1CCCC1 (configuration not stated) (10 µM)
inactive: [1] 0 | [2] 0 | [3] 0 | [4] 0 | [5] 0 | [6] 0 | [7] 0 | [8] 0 | [9] 0 | [10] 0

CS[C@@]1(C(=O)Nc2ccc3[nH]nc(-c4ccc(OC(C)C)nc4)c3c2)CCN(CC(=O)N2CC=C(c3ccc(-c4ncn(C)n4)cc3)CC2)C1 (2.5 µM)
inactive: [1] 0 | [2] 0 | [3] 0 | [4] 0 | [5] 0 | [6] 0 | [7] 0 | [8] 0 | [9] 0 | [10] 0

CC1=CC(=O)C(C(C)C)=C/C1=N/OC(=O)c1ccccc1C [Poloxin] (2.5 µM)
inactive: [1] 0 | [2] 0 | [3] 0 | [4] 0 | [5] 0 | [6] 0 | [7] 0 | [8] 0 | [9] 0 | [10] 0

Cc1cccc(-c2nn3c(c2-c2ccnc4ccc(C(N)=O)cc24)CCC3)n1 [Galunisertib] (10 µM)
inactive: [1] 0 | [2] 0 | [3] 0 | [4] 0 | [5] 0 | [6] 0 | [7] 0 | [8] 0 | [9] 0 | [10] 0

N#CC(=C(/N)Sc1ccccc1N)/C(C#N)=C(\N)Sc1ccccc1N (10 µM)
inactive: [1] 0 | [2] 0 | [3] 0 | [4] 0 | [5] 0 | [6] 0 | [7] 0 | [8] 0 | [9] 0 | [10] 0

CCOC(=O)c1c(C)[nH]c(C=C2C(=O)Nc3ccccc32)c1C (10 µM)
inactive: [1] 0 | [2] 0 | [3] 0 | [4] 0 | [5] 0 | [6] 0 | [7] 0 | [8] 0 | [9] 0 | [10] 0

O=C(O)c1c[nH]c2cc(Cl)c(-c3ccc(C4(O)CCC4)cc3)cc12 (10 µM)
inactive: [1] 0 | [2] 0 | [3] 0 | [4] 0 | [5] 0 | [6] 0 | [7] 0 | [8] 0 | [9] 0 | [10] 0

Nc1nc(Nc2ccc3c(c2)CC[C@@H](N2CCCC2)CC3)nn1-c1cc2c(nn1)-c1ccccc1CCC2 [Bemcentinib] (2.5 µM)
inactive: [1] 0 | [2] 0 | [3] 0 | [4] 0 | [5] 0 | [6] 0 | [7] 0 | [8] 0 | [9] 0 | [10] 0

CNCc1cc(Oc2ccc3c(ccn3C(=O)Nc3cc(C(F)(F)F)n(C)n3)c2)ncn1 [Acrizanib] (10 µM)
inactive: [1] 0 | [2] 0 | [3] 0 | [4] 0 | [5] 0 | [6] 0 | [7] 0 | [8] 0 | [9] 0 | [10] 0

C=CC(=O)N1CCC(c2ccc(C(N)=O)c(-c3ccc(Oc4ccccc4)cc3)n2)CC1 [Orelabrutinib] (2.5 µM)
inactive: [1] 0 | [2] 0 | [3] 0 | [4] 0 | [5] 0 | [6] 0 | [7] 0 | [8] 0 | [9] 0 | [10] 0

CN1CCC(Nc2nc(Nc3ccc(Oc4ccccc4)cc3)c3c(=O)[nH]cc(Br)c3n2)CC1 (2.5 µM)
inactive: [1] 0 | [2] 0 | [3] 0 | [4] 0 | [5] 0 | [7] 0 | [8] 0 | [9] 0 | [10] 0

CCCCNc1ncc(C(=O)NCc2ccc(-n3ccnc3)cc2)c(NC2CCC(O)CC2)n1 (configuration not stated) (10 µM)
inactive: [1] 0 | [2] 0 | [3] 0 | [4] 0 | [5] 0 | [7] 0 | [8] 0 | [9] 0 | [10] 0

CN1CCN(Cc2ccc(-c3cn(C4CCC(O)CC4)c4nc(NCCC5CC5)ncc34)cc2)CC1 (configuration not stated) (2.5 µM)
inactive: [1] 0 | [2] 0 | [3] 0 | [4] 0 | [5] 0 | [7] 0 | [8] 0 | [9] 0 | [10] 0

Nc1ccc(O)c(C(=O)O)c1 [5-Aminosalicylic Acid] (10 µM)
inactive: [1] 0 | [2] 0 | [3] 0 | [4] 0 | [5] 0 | [6] 0 | [7] 0 | [8] 0 | [9] 0 | [10] 0
